Reference: patent US20210261642A1, “SOLUBILITY OF GLP-1 PEPTIDE” (Novo Nordisk A/S, priority 2017, published 2021)
This continues a long series; more values of the same kind are listed elsewhere.

Assay: Assay (I): Determination of Solubility (96-well plate, pH 3.0-11.0, organic solvent 0-70% w/w, UV absorption at 280 nm)
Type: physicochemical
Description: Assay (I): Determination of Solubility
96-Well Plate Preparation
96-well plates containing target peptide in a solid form were prepared in one of two ways:
Method 1 (evaporation): Addition of 100 μl stock solution of said peptide at a concentration of 4-6 mg/ml to each well of a 96-well half area plate (150 μl well size). Subsequently the solvent was evaporated by applying a vacuum until the solvent was completely removed.
Method 2 (precipitation): Addition of a certain volume of a stock solution of said peptide containing to each well of a 96-well half area plate followed by the addition of a certain volume of concentrated phosphoric acid to obtain a pH of 4.6 followed by addition of a certain volume of ethanol resulting in a final ethanol concentration of 20% v/v. Subsequently the plate was stored at 4° C. for 1 h and then centrifuged at 4,000 rpm for 20 min. Finally the supernatant was removed. The concentration of the stock solution was chosen in a way that the final amount of peptide after supernatant removal was >0.4 mg per well.
In both cases the stock solution was prepared by adding de-ionized water to a certain amount of powder of said peptide followed by a stepwise addition of small amounts of a concentrated sodium hydroxide solution until said peptide was completely in solution.
To determine solubility of a target peptide at different pH and organic solvent concentrations, two different buffer systems were used in independent experiments to cover the whole range from pH 3.0 to pH 11.0. Buffer system 1 covers pH 3.0-7.5 and buffer system 2 covers pH 7.5-11.0. For each buffer system 96 different solvent compositions were premixed in the following way: • 1. A low pH buffer (adjusted to either pH 3.0 or pH 7.5) and a high pH buffer (adjusted to either pH 7.5 or pH 11.0) were mixed at 8 different ratios to obtain values between pH 3.0 and pH 7.5 or pH 7.5 and pH 11.0, respectively. The total volume after mixing was 300 μl. • 2. 12 different amounts of organic solvent were then added to these buffers to obtain organic solvent (e.g. ethanol) concentrations between 0 and 70% w/w. • 3. Water was then added to obtain a total weight of 1.0 g of solvent in each well.
After preparing the 96 different solvent systems, 100 μl of each system was transferred to the 96-well plate containing the solid form of the target peptide (prepared as described in the section “96-well plate preparation”). The plate was then stored at a given temperature (between 5° C. and 70° C.) for a given time on a rotating shaker set to 400 rpm. At regular time intervals the plate was centrifuged (4,000 rpm for 10 min) and a 10 μl sample was taken from each well. The samples were then analysed by UV absorption at 280 nm for peptide quantification. Peptide concentration results are given as UV absorption at 280 nm of the sample subtracted UV absorption at 280 nm of a well comprising 10 μl water.
The buffers used were as follows: • Buffer system 1 (for the pH range from pH 3.0-7.5)
• Buffer system 2 (for the pH ranae from pH 7.5-11.0)
Solubility of liraglutide was determined using Assay (I) described herein. Liraglutide was prepared using Method 1 (evaporation) or Method 2 (precipitation) as described in subsection “96-well plate preparation”.

[1] = MeCN 50.9% w/w, pH 6.9, RT, Method 1
[2] = MeCN 50.9% w/w, pH 7.5, 5° C., Method 1
[3] = MeCN 50.9% w/w, pH 7.5, 70° C., Method 1
[4] = MeCN 50.9% w/w, pH 7.5, RT, Method 1
[5] = MeCN 50.9% w/w, pH 8.0, 70° C., Method 1 (evaporation)
[6] = MeCN 50.9% w/w, pH 8.0, RT, Method 1
[7] = MeCN 50.9% w/w, pH 8.5, 70° C., Method 1 (evaporation)
[8] = MeCN 50.9% w/w, pH 8.5, RT, Method 1
[9] = MeCN 50.9% w/w, pH 9.0, 70° C., Method 1 (evaporation)
[10] = MeCN 50.9% w/w, pH 9.0, RT, Method 1
[11] = MeCN 50.9% w/w, pH 9.5, 70° C., Method 1 (evaporation)
[12] = MeCN 50.9% w/w, pH 9.5, RT, Method 1
[13] = MeCN 50.9% w/w, pH 10.0, 70° C., Method 1 (evaporation)
[14] = MeCN 50.9% w/w, pH 10.0, RT, Method 1
[15] = MeCN 50.9% w/w, pH 10.5, 70° C., Method 1 (evaporation)
[16] = MeCN 50.9% w/w, pH 10.5, RT, Method 1
[17] = MeCN 50.9% w/w, pH 11.0, 70° C., Method 1 (evaporation)
[18] = MeCN 50.9% w/w, pH 11.0, RT, Method 1
[19] = MeCN 57.3% w/w, pH 3.0, 5° C., Method 1

**Q.** Which “Peptide concentration after 5 min” value [1] does the source give for CCCCCCCCCCCCCCCC(=O)N[C@@H](CCC(=O)NCCCC[C@H](NC(=O)[C@H](C)NC(=O)[C@H](C)NC(=O)[C@H](CCC(N)=O)NC(=O)CNC(=O)[C@H](CCC(=O)O)NC(=O)[C@H](CC(C)C)NC(=O)[C@H](Cc1ccc(O)cc1)NC(=O)[C@H](CO)NC(=O)[C@H](CO)NC(=O)[C@@H](NC(=O)[C@H](CC(=O)O)NC(=O)[C@H](CO)NC(=O)[C@@H](NC(=O)[C@H](Cc1ccccc1)NC(=O)[C@@H](NC(=O)CNC(=O)[C@H](CCC(=O)O)NC(=O)[C@H](C)NC(=O)[C@@H](N)Cc1cnc[nH]1)[C@@H](C)O)[C@@H](C)O)C(C)C)C(=O)N[C@@H](CCC(=O)O)C(=O)N[C@@H](Cc1ccccc1)C(=O)N[C@H](C(=O)N[C@@H](C)C(=O)N[C@@H](Cc1c[nH]c2ccccc12)C(=O)N[C@@H](CC(C)C)C(=O)N[C@H](C(=O)N[C@@H](CCCNC(=N)N)C(=O)NCC(=O)N[C@@H](CCCNC(=N)N)C(=O)NCC(=O)O)C(C)C)[C@@H](C)CC)C(=O)O [liraglutide, Arg34,Lys26-(N-epsilon-(gamma-L-glutamyl(N-alfa-hexadecanoyl)))-GLP-1(7-37)] here?
**A.** 0.6 mg/mL

**Q.** What about the “Peptide concentration after 180 min” value [1] of the same compound?
**A.** 1.5 mg/mL

**Q.** What about the “Peptide concentration after 24 h” value [1] of the same compound?
**A.** 0.0 mg/mL

**Q.** And the “Peptide concentration after 5 min” value [2]?
**A.** 1.0 mg/mL

**Q.** And the “Peptide concentration after 180 min” value [2]?
**A.** 3.0 mg/mL

**Q.** What about the “Peptide concentration after 24 h” value [2] of the same compound?
**A.** >4.0 mg/mL

**Q.** And the “Peptide concentration after 5 min” value [3]?
**A.** >4.0 mg/mL

**Q.** And the “Peptide concentration after 180 min” value [3]?
**A.** >4.0 mg/mL

**Q.** What about the “Peptide concentration after 5 min” value [4] of the same compound?
**A.** 1.0 mg/mL

**Q.** What about the “Peptide concentration after 180 min” value [4] of the same compound?
**A.** >4.0 mg/mL

**Q.** What about the “Peptide concentration after 24 h” value [4] of the same compound?
**A.** >4.0 mg/mL

**Q.** And the “Peptide concentration after 5 min” value [5]?
**A.** 3.7 mg/mL

**Q.** What about the “Peptide concentration after 180 min” value [5] of the same compound?
**A.** >4.0 mg/mL

**Q.** And the “Peptide concentration after 5 min” value [6]?
**A.** 0.7 mg/mL

**Q.** And the “Peptide concentration after 180 min” value [6]?
**A.** 3.8 mg/mL

**Q.** What about the “Peptide concentration after 24 h” value [6] of the same compound?
**A.** >4.0 mg/mL

**Q.** And the “Peptide concentration after 5 min” value [7]?
**A.** 2.9 mg/mL

**Q.** And the “Peptide concentration after 180 min” value [7]?
**A.** >4.0 mg/mL

**Q.** And the “Peptide concentration after 5 min” value [8]?
**A.** 1.0 mg/mL

**Q.** What about the “Peptide concentration after 180 min” value [8] of the same compound?
**A.** 3.7 mg/mL

**Q.** What about the “Peptide concentration after 24 h” value [8] of the same compound?
**A.** >4.0 mg/mL

**Q.** And the “Peptide concentration after 5 min” value [9]?
**A.** 1.8 mg/mL

**Q.** What about the “Peptide concentration after 180 min” value [9] of the same compound?
**A.** >4.0 mg/mL

**Q.** What about the “Peptide concentration after 5 min” value [10] of the same compound?
**A.** 0.7 mg/mL

**Q.** And the “Peptide concentration after 180 min” value [10]?
**A.** 2.8 mg/mL

**Q.** And the “Peptide concentration after 24 h” value [10]?
**A.** >4.0 mg/mL

**Q.** And the “Peptide concentration after 5 min” value [11]?
**A.** >4.0 mg/mL

**Q.** And the “Peptide concentration after 180 min” value [11]?
**A.** >4.0 mg/mL

**Q.** And the “Peptide concentration after 5 min” value [12]?
**A.** 1.6 mg/mL

**Q.** And the “Peptide concentration after 180 min” value [12]?
**A.** >4.0 mg/mL

**Q.** And the “Peptide concentration after 24 h” value [12]?
**A.** 4.0 mg/mL

**Q.** And the “Peptide concentration after 5 min” value [13]?
**A.** >4.0 mg/mL

**Q.** What about the “Peptide concentration after 180 min” value [13] of the same compound?
**A.** >4.0 mg/mL

**Q.** What about the “Peptide concentration after 5 min” value [14] of the same compound?
**A.** 1.9 mg/mL

**Q.** What about the “Peptide concentration after 180 min” value [14] of the same compound?
**A.** >4.0 mg/mL

**Q.** What about the “Peptide concentration after 24 h” value [14] of the same compound?
**A.** 3.9 mg/mL

**Q.** What about the “Peptide concentration after 5 min” value [15] of the same compound?
**A.** 3.9 mg/mL

**Q.** What about the “Peptide concentration after 180 min” value [15] of the same compound?
**A.** >4.0 mg/mL

**Q.** And the “Peptide concentration after 5 min” value [16]?
**A.** 1.0 mg/mL

**Q.** What about the “Peptide concentration after 180 min” value [16] of the same compound?
**A.** 3.7 mg/mL

**Q.** And the “Peptide concentration after 24 h” value [16]?
**A.** >4.0 mg/mL

**Q.** And the “Peptide concentration after 5 min” value [17]?
**A.** 2.6 mg/mL

**Q.** And the “Peptide concentration after 180 min” value [17]?
**A.** >4.0 mg/mL

**Q.** And the “Peptide concentration after 5 min” value [18]?
**A.** 0.8 mg/mL

**Q.** And the “Peptide concentration after 180 min” value [18]?
**A.** >4.0 mg/mL

**Q.** And the “Peptide concentration after 24 h” value [18]?
**A.** >4.0 mg/mL

**Q.** And the “Peptide concentration after 5 min” value [19]?
**A.** 0.7 mg/mL

**Q.** What about the “Peptide concentration after 180 min” value [19] of the same compound?
**A.** 1.2 mg/mL

**Q.** And the “Peptide concentration after 24 h” value [19]?
**A.** 1.5 mg/mL

**Q.** And the “Peptide concentration after 5 min” value (MeCN 57.3% w/w, pH 3.0, 70° C., Method 1)?
**A.** 0.9 mg/mL
